These are yes or no findings as the source states them, for the method shown. In cells and extracts the contact can be indirect. Some entries that bind do so weakly or less than the wild type.
Columns and labels:
[1] = biological target: T1, endogenous CYBB of mouse macrophages (BMDMs) and mouse colon (mouse) (UniProt Q61093); experiment: co-IP (anti-His) from BMDMs incubated with rNAMPT, anti-CYBB blot
T1 sequence (looked up): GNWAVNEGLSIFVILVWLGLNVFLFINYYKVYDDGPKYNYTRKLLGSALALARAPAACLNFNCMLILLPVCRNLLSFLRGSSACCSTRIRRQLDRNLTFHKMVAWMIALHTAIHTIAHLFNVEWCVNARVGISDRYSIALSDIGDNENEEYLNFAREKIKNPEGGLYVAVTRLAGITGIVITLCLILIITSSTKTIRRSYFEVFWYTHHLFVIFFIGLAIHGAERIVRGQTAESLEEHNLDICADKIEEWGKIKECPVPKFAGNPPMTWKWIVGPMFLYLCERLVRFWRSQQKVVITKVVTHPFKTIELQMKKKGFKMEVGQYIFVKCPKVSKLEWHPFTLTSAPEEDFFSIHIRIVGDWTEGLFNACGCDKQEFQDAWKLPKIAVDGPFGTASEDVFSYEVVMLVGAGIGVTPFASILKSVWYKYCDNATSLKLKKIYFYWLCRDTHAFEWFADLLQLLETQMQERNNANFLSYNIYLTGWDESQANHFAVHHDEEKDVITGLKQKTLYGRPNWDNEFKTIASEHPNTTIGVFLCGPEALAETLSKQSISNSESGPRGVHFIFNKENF

By UniProt entry, the sequences of proteins in these tests, tags left out. Where a name states a change or a piece, a line headed by the entry shows the natural chain unless it says otherwise. Residues count along the entry.
UniProt Q9QUK6, residues 26-835: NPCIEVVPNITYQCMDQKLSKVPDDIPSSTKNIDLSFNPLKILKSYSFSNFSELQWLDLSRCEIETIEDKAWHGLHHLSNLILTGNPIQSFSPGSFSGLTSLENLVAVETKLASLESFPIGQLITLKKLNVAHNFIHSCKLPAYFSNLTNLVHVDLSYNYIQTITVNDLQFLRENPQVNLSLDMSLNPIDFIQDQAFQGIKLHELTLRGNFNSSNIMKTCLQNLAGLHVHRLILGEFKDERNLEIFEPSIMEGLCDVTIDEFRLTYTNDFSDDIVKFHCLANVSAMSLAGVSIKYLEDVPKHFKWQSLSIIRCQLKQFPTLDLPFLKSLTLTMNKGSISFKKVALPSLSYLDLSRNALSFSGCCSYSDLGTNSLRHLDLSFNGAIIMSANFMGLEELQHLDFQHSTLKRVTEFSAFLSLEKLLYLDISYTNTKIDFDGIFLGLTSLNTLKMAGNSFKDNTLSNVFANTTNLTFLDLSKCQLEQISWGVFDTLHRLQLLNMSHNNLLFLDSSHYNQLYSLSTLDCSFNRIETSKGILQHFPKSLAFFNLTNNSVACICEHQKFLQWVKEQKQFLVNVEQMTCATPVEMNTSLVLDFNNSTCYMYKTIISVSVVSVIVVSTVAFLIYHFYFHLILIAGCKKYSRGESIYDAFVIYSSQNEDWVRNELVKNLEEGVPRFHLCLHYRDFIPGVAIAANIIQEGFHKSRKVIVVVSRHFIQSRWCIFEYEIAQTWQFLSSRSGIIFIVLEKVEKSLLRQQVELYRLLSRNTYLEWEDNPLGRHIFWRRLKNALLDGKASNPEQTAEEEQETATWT
UniProt P43490: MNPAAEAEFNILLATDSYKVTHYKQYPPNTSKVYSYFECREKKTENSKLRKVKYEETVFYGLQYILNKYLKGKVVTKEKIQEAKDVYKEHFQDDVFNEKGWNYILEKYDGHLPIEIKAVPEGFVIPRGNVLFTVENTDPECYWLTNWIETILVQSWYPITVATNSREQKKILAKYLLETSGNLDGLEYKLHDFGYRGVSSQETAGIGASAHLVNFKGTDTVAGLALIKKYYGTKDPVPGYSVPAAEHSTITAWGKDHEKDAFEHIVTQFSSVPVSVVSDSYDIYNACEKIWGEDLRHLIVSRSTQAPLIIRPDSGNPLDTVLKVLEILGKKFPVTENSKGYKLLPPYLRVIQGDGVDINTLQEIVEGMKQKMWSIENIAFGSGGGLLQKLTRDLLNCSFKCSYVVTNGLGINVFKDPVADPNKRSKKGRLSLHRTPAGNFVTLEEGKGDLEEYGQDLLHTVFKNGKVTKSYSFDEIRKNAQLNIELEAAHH

[2] = biological target: endogenous TLR4 of mouse macrophages (BMDMs) and mouse colon (mouse) (UniProt Q9QUK6); experiment: co-IP (anti-His) from BMDMs incubated with rNAMPT, anti-TLR4 blot

“recombinant NAMPT protein (rNAMPT) (from UniProt P43490 1-491) (enzyme)” was tested, and the binding [1] was “binds” and the binding [2] was “binds”.

Reference: patent publication US20240299505A1, “COMPOSITION FOR IMPROVING, PREVENTING OR TREATING INFLAMMATORY BOWEL DISEASE COMPRISING NAMPT-DERIVED PEPTIDE AS ACTIVE INGREDIENT” (Industry-University Cooperation Foundation Hanyang …, priority 2023, published 2024)
